Measurements published in patent US4386073A, “Tripeptides acting on the central nervous system and a process for the preparation thereof” (Patentbureau DANUBIA, priority 1979, dated 1983).

tested on: Haloperidol-induced catalepsy; assay: Inhibition of Haloperidol-induced catalepsy on rats; format: in vivo, rat (male Wistar); conditions: observation time after i.v. treatment belonging to the ED50
Description: (1) Inhibition of Haloperidol-induced catalepsy on rats (see J. Delay and P. Deniker: Compt. Rend. Congr. Med. Alenistes Neurologistes, 19, 497, Luxembourg, 1952)
The tests were performed on male Wistar rats weighing 160 to 180 g.
40 mg/kg of 4-(p-chlorophenyl)-1-(3-/p-fluorobenzoyl/-propyl)-piperidin-4-ol (Haloperi dol) were administered subcutaneously into the animals, and 120 minutes after this treatment the animals were checked for the appearance of catalepsy. The rats were divided into groups of 10 animals each, and treated intravenously with TRH or the new TRH analogues. The animals belonging to the control group received physiological saline. The catalepsy-suspending effects of the individual compounds were determined 15, 30, 60, 90 and 120 minutes after the treatment. The animals that had not changed their position for 30 seconds after placing their fore-paw onto a 7 cm high column were regarded as cataleptic.

Compound | Inhibition of Haloperidol catalepsy, time [min]
CC(C)C[C@H](NC(=O)[C@H]1CCC(=O)N1)C(=O)N1CCC[C@H]1C(N)=O [D-Glp Leu Pro, D-Pyroglutamyl-L-leucyl-L-prolinamide] ([d(pGlu)]-Leu-Pro-NH2) | 15
CCC[C@H](NC(=O)C1CCCC(=O)N1)C(=O)N1CCCC[C@H]1C(N)=O (stereo partly drawn) [Kpc Nva HPro, L-6-Ketopiperidine-2-carbonyl-L-norvalyl-L-homoprolinamide] | 15
CC(C)C[C@H](NC(=O)C1CNC(=O)N1)C(=O)N1CCC[C@H]1C(N)=O (stereo partly drawn) [Kic Leu Pro, L-2-Ketoimidazolidine-4-carbonyl-L-leucyl-L-prolinamide] | 30
CCC[C@H](NC(=O)C1CCCC(=O)N1)C(=O)N1CCC[C@H]1C(N)=O (stereo partly drawn) [Kpc Nva Pro, L-6-Ketopiperidine-2-carbonyl-L-norvalyl-L-prolinamide] | 30
NC(=O)[C@@H]1CCCN1C(=O)[C@H](Cc1c[nH]cn1)NC(=O)[C@@H]1CCC(=O)N1 [TRH, L-pyroglutamyl-L-histidyl-L-prolinamide, reference compound] | 15
CC(C)C[C@H](NC(=O)C1CCCC(=O)N1)C(=O)N1CCC[C@H]1C(N)=O (stereo partly drawn) [Kpc Leu Pro, L-6-ketopiperidine-2-carbonyl-L-leucyl-L-prolinamide] | 60

Where a SMILES comes first, the peptide text is derived from it. [ ]: non-standard residue; d: D form. d(pGlu) = O=C1CC[C@H](C(=O)O)N1
